In article PMC12357052 one finds binding data, which are given here for five substances.

The chains behind the UniProt entries cited, without tags or fusion partners.
UniProt O43516: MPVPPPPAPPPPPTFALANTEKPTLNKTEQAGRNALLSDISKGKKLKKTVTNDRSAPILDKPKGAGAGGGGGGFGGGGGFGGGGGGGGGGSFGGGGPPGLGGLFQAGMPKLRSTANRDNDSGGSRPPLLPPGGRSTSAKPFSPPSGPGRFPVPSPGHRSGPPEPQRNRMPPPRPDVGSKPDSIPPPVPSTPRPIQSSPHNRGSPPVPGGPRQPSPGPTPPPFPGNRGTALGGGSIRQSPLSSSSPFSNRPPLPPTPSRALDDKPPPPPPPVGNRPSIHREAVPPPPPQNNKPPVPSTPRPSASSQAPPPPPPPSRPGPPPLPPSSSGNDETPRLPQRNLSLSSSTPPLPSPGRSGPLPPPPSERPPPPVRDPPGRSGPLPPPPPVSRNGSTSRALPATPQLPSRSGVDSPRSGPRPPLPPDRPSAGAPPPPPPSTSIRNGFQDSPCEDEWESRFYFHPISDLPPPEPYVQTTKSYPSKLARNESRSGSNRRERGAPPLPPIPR
UniProt P12814: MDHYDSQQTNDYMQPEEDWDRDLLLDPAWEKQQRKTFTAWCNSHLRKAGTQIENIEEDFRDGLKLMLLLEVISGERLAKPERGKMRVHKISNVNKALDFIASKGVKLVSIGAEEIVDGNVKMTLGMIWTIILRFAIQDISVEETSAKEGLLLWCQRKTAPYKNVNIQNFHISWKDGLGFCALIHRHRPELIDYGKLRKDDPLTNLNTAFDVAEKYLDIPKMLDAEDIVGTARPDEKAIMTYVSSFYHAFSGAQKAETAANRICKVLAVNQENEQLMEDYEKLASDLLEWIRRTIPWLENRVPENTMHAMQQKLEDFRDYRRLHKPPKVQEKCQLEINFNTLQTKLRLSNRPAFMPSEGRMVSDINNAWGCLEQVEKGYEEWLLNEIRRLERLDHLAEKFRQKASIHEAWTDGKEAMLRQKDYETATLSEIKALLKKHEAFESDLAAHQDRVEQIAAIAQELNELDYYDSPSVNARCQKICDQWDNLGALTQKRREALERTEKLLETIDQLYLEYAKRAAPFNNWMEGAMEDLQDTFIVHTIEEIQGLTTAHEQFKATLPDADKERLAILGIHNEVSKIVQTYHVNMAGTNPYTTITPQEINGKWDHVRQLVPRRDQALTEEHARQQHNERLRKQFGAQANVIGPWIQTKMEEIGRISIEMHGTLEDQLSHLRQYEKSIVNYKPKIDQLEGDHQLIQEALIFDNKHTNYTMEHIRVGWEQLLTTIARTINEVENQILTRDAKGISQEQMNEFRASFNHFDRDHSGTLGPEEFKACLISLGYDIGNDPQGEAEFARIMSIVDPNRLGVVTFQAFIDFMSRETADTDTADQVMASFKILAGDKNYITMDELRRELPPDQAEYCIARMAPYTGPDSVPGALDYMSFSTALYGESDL
UniProt Q15149: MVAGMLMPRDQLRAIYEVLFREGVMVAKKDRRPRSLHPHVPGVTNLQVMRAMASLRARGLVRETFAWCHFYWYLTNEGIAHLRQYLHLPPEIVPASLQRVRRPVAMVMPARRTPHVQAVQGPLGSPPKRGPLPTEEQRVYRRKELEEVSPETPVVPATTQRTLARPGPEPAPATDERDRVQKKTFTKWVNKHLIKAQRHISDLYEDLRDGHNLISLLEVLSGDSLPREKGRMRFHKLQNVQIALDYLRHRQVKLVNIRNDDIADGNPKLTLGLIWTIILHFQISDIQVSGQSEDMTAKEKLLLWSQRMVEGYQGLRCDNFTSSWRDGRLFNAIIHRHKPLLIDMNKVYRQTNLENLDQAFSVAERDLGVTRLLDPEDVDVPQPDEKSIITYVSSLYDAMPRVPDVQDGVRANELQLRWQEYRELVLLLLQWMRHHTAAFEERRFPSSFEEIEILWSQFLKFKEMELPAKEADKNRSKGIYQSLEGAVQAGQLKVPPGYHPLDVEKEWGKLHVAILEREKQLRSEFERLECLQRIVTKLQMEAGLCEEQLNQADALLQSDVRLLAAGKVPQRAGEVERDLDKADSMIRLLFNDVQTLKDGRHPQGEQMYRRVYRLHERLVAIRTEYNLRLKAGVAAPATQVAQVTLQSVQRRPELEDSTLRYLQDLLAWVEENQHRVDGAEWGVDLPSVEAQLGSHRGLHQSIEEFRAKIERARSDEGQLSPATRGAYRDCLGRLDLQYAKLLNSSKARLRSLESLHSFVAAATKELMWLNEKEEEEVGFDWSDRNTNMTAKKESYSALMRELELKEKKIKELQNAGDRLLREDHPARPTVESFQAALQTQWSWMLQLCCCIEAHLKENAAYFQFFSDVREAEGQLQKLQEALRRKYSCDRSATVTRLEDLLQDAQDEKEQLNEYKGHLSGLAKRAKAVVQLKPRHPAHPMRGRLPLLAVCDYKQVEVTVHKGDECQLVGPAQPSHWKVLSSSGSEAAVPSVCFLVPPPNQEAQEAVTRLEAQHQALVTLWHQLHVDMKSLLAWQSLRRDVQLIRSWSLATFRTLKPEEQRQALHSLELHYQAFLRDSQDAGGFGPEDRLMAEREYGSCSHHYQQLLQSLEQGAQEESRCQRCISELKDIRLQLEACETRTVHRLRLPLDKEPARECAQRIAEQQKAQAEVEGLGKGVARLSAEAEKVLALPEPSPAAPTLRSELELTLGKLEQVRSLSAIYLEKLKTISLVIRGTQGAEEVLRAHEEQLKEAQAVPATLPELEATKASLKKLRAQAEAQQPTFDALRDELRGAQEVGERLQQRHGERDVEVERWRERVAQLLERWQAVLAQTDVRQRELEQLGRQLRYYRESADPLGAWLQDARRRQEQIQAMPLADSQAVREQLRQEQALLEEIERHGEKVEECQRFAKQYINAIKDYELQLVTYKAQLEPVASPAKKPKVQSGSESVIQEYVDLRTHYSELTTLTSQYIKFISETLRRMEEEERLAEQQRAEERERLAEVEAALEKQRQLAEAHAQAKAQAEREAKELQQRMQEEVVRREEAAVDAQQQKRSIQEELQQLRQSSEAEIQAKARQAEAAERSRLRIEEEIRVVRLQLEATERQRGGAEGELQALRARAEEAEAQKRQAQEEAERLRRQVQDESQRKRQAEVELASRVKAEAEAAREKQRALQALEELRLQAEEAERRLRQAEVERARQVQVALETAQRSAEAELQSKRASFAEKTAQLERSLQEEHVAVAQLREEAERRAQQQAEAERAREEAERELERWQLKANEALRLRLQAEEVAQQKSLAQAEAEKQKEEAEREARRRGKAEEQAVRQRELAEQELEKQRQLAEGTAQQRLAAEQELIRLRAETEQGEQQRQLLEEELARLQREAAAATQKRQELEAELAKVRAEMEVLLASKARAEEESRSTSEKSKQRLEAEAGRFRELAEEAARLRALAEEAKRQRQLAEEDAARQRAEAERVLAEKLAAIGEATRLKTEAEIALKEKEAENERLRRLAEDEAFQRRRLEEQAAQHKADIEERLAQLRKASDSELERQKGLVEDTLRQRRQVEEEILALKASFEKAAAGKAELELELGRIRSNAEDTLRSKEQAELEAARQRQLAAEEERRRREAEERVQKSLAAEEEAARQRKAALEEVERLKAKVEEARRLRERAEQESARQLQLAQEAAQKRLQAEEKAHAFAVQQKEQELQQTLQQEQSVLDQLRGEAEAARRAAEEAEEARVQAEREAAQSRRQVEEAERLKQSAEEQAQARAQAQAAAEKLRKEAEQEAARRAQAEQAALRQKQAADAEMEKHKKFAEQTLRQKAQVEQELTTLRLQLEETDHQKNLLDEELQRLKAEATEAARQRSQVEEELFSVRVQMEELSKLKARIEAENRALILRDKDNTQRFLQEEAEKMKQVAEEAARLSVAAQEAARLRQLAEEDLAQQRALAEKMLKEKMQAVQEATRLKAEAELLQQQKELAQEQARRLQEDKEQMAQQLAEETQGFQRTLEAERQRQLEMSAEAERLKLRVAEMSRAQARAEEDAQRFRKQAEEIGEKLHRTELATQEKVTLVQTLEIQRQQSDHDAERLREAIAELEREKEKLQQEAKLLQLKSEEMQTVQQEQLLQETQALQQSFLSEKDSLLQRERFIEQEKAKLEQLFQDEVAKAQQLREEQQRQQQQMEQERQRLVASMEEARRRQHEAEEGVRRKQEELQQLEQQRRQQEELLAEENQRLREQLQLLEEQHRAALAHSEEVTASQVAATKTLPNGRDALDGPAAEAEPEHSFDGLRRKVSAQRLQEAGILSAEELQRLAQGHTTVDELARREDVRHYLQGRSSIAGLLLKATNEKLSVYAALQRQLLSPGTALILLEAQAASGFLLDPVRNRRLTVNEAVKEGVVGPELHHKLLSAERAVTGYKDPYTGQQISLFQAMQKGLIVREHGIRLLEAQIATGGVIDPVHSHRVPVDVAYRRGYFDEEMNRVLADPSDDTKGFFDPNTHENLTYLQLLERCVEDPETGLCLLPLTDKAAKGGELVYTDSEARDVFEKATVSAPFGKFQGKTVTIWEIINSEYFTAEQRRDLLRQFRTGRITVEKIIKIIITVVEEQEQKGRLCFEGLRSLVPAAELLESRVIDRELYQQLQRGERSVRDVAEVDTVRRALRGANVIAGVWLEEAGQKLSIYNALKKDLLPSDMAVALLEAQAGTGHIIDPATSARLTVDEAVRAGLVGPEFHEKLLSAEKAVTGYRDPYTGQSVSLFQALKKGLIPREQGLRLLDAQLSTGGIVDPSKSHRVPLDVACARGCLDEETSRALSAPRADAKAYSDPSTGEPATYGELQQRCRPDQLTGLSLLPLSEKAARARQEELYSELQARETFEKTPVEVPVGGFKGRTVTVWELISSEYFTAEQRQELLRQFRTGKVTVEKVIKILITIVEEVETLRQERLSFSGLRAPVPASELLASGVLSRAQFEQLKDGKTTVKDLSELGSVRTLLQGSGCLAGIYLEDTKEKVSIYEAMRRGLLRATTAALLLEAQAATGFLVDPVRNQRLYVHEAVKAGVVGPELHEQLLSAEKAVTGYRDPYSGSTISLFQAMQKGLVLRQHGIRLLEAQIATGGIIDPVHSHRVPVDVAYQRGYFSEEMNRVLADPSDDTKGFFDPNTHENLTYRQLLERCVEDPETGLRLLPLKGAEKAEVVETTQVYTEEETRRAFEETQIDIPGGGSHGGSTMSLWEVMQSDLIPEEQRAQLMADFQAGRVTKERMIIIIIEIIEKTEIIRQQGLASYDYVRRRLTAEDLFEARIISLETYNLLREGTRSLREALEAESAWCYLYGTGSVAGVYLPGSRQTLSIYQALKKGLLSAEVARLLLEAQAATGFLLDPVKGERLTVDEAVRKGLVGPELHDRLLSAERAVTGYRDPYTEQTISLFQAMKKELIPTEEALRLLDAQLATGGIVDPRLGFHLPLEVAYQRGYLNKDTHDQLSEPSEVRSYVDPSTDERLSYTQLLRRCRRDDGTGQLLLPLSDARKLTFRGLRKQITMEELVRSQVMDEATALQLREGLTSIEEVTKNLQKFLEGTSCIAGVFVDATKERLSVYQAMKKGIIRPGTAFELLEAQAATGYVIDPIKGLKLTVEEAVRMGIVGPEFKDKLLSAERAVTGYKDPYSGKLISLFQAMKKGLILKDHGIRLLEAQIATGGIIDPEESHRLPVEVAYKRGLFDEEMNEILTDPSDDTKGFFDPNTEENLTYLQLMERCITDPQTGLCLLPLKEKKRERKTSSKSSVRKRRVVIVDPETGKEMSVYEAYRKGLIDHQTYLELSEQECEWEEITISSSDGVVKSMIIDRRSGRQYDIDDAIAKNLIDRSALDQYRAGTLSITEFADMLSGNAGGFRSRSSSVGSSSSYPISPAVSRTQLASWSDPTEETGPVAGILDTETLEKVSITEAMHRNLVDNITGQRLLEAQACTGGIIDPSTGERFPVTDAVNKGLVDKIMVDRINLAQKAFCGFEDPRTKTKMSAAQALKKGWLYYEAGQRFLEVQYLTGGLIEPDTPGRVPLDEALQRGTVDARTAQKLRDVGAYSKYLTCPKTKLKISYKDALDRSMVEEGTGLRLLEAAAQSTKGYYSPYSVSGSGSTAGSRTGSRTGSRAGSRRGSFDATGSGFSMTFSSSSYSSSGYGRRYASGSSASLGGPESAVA
UniProt O00401: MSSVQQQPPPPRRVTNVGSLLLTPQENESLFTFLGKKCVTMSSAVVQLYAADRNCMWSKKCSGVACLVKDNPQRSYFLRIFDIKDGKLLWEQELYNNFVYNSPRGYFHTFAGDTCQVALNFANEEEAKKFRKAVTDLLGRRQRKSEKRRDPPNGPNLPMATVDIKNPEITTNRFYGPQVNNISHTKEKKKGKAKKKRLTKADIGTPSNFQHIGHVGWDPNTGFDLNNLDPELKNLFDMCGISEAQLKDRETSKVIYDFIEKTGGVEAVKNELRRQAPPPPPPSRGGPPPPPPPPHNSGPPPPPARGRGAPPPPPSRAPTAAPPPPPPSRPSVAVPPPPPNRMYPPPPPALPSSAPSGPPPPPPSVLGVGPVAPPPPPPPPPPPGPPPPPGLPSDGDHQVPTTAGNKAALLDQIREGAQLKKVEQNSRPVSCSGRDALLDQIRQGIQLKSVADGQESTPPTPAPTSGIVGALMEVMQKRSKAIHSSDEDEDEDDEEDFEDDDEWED

These are yes or no findings as the source states them, for the method shown. In cells and extracts the contact can be indirect. A yes stands for co-enrichment or nearness to the bait. Other partners may have been found.

The experiment deals with WAS/WASL interacting protein family member 1 (WIPF1), wild type, overexpressed (WIPF1-OE) (human) (UniProt O43516). The experiment is described as follows: affinity purification with mass spectrometry; Proteins immunoprecipitated with a WIPF1 antibody from WIPF1-OE HTR-8/SVneo cells; IgG immunoprecipitate as control; Easy nLC1200/Q Exactive, Mascot score >=20.

Consider ACTN1 (from UniProt P12814 1-892), for which the binding result is reported as “binds”. In the case of PLEC (from UniProt Q15149 1-4684) it was “binds”; in that of WASL (from UniProt O00401 1-505), “binds”.

Take “alpha-actinin 4 (ACTN4) (from UniProt O43707 1-911)”: the binding entry is given as “binds”.

In the case of “talin 1 (TLN1) (from UniProt Q9Y490 1-2541)”, the binding result is on record as “binds”.
